Measured values: publication PMC8976915
Results are given in words; binding and its absence hold for the method and conditions named. In cells and extracts the contact can be indirect. A yes stands for co-enrichment or nearness to the bait. Other partners may have been found.

Amino acid sequences for entries named in this document (tags omitted).
UniProt Q13283: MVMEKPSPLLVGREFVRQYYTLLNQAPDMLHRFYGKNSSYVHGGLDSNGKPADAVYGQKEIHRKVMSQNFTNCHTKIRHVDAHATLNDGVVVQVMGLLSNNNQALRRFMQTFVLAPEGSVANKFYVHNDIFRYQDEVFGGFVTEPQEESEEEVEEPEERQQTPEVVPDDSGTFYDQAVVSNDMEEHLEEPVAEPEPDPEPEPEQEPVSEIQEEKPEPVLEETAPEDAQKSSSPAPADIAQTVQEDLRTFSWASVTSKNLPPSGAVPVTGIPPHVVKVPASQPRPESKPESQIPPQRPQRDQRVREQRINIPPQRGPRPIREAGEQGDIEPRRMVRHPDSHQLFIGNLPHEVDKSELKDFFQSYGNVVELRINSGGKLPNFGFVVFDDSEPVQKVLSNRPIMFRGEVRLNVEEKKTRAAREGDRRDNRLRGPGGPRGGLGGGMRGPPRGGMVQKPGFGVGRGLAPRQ
UniProt Q9NR30: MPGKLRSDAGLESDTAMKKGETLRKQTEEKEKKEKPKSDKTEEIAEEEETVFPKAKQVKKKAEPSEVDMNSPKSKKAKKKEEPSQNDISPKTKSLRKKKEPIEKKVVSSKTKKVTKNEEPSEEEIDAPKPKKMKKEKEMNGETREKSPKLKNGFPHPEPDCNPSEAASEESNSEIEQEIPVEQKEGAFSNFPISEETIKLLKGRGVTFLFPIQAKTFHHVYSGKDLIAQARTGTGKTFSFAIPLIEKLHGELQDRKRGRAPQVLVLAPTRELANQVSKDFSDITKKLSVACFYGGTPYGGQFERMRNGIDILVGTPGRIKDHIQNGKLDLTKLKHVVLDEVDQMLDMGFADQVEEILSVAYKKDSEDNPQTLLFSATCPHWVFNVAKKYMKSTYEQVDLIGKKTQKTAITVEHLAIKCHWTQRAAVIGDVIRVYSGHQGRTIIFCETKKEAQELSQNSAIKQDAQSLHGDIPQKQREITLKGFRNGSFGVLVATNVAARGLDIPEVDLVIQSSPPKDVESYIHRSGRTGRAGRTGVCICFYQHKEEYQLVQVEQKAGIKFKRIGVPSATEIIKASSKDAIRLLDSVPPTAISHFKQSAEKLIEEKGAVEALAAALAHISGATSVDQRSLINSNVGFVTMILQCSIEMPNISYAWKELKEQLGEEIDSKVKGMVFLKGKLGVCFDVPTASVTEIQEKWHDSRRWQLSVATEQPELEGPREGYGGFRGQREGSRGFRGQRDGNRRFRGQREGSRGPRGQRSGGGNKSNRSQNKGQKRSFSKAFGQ
UniProt Q15717: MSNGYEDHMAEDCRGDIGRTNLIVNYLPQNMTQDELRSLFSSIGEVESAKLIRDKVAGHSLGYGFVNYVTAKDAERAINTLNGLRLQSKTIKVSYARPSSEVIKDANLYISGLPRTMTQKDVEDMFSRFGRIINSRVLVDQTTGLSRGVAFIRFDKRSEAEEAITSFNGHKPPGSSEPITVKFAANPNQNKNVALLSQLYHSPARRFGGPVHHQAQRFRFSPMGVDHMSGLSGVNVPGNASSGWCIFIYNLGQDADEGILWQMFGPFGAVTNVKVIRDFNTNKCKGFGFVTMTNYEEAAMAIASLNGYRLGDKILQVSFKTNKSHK

Target: GFP-G3BP1 (Ras-GTPase activating SH3 domain-binding protein 1) (UniProt Q13283)
Assay: affinity purification with mass spectrometry; U2OS GFP-G3BP1 cells treated with VFS for 1 h; granule-enriched fraction made by sequential centrifugation; IP with anti-GFP antibody (control IgG) and Protein A Dynabeads at 4°C; washes with SG lysis buffer + 2 M urea, + 300 mM potassium acetate, then TE; LC-MS/MS, MaxQuant; hits at ≥1 log2-fold over control IgG

| Substance | binding |
| --- | --- |
| DDX21 (from UniProt Q9NR30 1-783) | binds |
| ELAVL1 (from UniProt Q15717 1-326) | binds |
